Drawing on doi:10.1101/2021.11.11.468204, this text covers binding for 2 molecules.

Amino acid sequences for entries named in this document (tags omitted). Residues count along the entry.
UniProt O95202, residues 116-739: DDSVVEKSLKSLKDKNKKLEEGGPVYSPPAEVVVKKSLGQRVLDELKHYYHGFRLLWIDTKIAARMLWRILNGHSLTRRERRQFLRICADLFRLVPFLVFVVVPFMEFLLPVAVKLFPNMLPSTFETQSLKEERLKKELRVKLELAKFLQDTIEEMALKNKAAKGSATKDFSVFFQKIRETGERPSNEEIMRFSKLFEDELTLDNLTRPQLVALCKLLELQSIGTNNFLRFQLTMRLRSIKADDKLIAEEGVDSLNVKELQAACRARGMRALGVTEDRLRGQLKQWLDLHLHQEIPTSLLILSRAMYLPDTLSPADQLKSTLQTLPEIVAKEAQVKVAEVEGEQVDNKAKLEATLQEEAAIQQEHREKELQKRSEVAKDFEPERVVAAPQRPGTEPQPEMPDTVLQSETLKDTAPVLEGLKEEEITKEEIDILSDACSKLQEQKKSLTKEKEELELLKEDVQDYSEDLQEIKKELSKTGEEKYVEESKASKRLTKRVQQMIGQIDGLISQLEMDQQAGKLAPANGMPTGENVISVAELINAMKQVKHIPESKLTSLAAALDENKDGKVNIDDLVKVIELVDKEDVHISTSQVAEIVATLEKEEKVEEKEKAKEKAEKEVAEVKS
UniProt Q9UHD2: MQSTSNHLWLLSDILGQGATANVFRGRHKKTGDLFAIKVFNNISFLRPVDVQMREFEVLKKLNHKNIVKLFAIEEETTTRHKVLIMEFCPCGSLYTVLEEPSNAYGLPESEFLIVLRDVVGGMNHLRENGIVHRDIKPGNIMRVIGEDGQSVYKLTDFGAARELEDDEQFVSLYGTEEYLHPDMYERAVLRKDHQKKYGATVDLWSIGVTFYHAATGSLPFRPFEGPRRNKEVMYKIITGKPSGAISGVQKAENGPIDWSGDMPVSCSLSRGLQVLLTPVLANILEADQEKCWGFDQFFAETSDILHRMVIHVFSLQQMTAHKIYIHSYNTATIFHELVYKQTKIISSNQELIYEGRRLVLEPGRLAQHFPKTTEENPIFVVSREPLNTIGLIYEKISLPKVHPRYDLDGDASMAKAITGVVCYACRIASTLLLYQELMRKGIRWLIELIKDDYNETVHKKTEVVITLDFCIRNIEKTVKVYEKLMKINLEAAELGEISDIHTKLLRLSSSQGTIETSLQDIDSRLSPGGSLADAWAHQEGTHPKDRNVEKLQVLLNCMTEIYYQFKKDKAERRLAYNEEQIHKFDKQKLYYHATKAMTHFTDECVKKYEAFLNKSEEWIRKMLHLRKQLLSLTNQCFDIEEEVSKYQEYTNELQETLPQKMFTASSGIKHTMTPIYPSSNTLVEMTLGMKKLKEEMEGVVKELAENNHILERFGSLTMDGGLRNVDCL

Read-outs that look alike come from different tables or passages of the source. No constants are given. Whether binding was seen depends on the method and setting. In cells and extracts the contact can be indirect. These calls come from enrichment with a bait or labelling near it, and not all partners need be listed.

Common to all, as to assay: affinity purification with mass spectrometry
In assay [1] the target is LETM1-StrepHA (UniProt O95202).
Assay [2] concerns the target LETM1-StrepHA (UniProt O95202). This is another data set of the same source.
The target in assay [3] is LETM1-StrepHA (UniProt O95202). This is another data set of the same source.

TBK1 (from UniProt Q9UHD2 1-729): the binding result in the assay with LETM1-StrepHA [1] and with LETM1-StrepHA [2] was “binds” in each case.

B1: mitochondrial Morphology and Cristae Structure 1 (MICS1) (protein, UniProt Q9H3K2 46-345)
chain: ATKTRIGIRRGRTGQELKEAALEPSMEKIFKIDQMGRWFVAGGAAVGLGALCYYGLGLSNEIGAIEKAVIWPQYVKDRIHSTYMYLAGSIGLTALSAIAISRTPVLMNFMMRGSWVTIGVTFAAMVGAGMLVRSIPYDQSPGPKHLAWLLHSGVMGAVVAPLTILGGPLLIRAAWYTAGIVGGLSTVAMCAPSEKFLNMGAPLGVGLGLVFVSSLGSMFLPPTTVAGATLYSVAMYGGLVLFSMFLLYDTQKVIKRAEVSPMYGVQKYDPINSMLSIYMDTLNIFMRVATMLATGGNRKK
As for B1, in the assay with LETM1-StrepHA [3], the binding result is “binds”.
